Measured values: publication PMC7226064
Results are given in words; binding and its absence hold for the method and conditions named.

Target: Δ192AnxA11 (N-terminally truncated rat annexin A11) (rat) (UniProt Q5XI77)
Test: SAXS; protein in solution, 20 mM Tris-HCl, 10 °C, dilution series 0.41–2.96 mg/mL; monomeric BSA as molecular weight standard; both purified

B1: Δ192AnxA11 (N-terminally truncated rat annexin A11) (domain or fragment, UniProt Q5XI77 193-503)
chain: TDASGFDPLRDAEVLRKAMKGFGTDEQAIIDCLGSRSNKQRQQILLSFKTAYGKDLIKDLKSELSGNFEKTILALMKTPVLFDVYEIKEAIKGAGTDEACLIEILASRSNEHIRELNRAYKTEFKKTLEEAIRSDTSGHFQRLLISLSQGNRDESTNVDMSLVQRDVQELYAAGENRLGTDESKFNAILCSRSRAHLVAVFNEYQRMTGRDIEKSICREMSGDLEQGMLAVVKCLKNTPAFFAERLNKAMRGAGTKDRTLIRIMVSRSELDLLDIRAEYKRMYGKSLYHDITGDTSGDYRKILLKICGGND
binding: no binding (tested: 0.41–1.18 mg/mL)
